Laboratory results from paper doi:10.1101/2022.07.03.498625.
These are yes or no findings as the source states them, for the method shown. In cells and extracts the contact can be indirect. Some entries that bind do so weakly or less than the wild type.

The chains behind the UniProt entries cited, without tags or fusion partners. Residues count along the entry.
UniProt P63165, residues 1-97: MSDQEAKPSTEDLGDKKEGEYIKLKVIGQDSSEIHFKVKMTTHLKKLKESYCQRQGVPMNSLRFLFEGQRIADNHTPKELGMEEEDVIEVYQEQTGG

Molecular target: HA-tagged wild type Zbtb14 (zebrafish)
Assay: co-IP

GFP-SUMO1 (from UniProt P63165 1-97)
binding: binds
